Measurements published in publication PMC13321232.
These are yes or no findings as the source states them, for the method shown. Binding seen in cells or lysates may run through a third protein. Some entries that bind do so weakly or less than the wild type. Where a sequence is shown, tags or fusion partners need not be part of it. Each block holds one binder with its values, some of them ahead of it.

Columns and labels:
[1] = molecular target: T1, PXL1-flag (Arabidopsis thaliana) (UniProt Q9FRS6); assay: co-IP; FLAG- and HA-tagged proteins cotransfected into Arabidopsis protoplasts from root cell suspension cultures; 10 µM MG132 for 6 h; lysis in 50 mM Tris-HCl pH 7.6, 150 mM NaCl, 1% NP-40, 0.1% SDS; anti-FLAG (anti-DYKDDDDK) or anti-HA magnetic beads, 4 °C; western blot
T1 sequence: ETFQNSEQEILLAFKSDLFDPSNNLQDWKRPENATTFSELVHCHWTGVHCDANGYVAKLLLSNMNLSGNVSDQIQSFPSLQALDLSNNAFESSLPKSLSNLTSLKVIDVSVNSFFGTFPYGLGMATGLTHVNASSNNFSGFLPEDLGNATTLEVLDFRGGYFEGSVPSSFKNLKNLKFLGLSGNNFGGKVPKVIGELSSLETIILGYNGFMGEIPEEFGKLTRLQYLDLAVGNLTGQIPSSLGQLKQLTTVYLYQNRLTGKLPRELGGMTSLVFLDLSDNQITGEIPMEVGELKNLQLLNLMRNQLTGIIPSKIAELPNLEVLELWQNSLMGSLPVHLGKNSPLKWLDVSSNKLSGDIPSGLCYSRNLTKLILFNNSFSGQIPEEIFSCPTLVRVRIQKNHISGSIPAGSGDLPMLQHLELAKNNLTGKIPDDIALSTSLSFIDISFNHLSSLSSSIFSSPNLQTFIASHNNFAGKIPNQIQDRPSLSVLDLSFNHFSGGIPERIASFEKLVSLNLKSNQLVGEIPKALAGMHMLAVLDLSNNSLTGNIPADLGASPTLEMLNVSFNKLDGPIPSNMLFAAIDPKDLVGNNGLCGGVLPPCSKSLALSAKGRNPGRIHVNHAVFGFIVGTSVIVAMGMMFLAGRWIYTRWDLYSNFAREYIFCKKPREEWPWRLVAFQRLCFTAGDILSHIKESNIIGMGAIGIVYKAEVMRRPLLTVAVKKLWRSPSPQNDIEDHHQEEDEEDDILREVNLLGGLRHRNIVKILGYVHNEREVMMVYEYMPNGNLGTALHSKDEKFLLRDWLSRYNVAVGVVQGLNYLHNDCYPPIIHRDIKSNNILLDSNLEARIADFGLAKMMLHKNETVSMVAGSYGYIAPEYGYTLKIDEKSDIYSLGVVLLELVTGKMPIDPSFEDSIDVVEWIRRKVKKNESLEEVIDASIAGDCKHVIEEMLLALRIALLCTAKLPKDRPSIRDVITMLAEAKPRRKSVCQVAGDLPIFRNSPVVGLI

[2] = molecular target: T2, PXY-FLAG (plant construct) (Arabidopsis thaliana) (UniProt Q9FII5); assay: as above
T2 sequence: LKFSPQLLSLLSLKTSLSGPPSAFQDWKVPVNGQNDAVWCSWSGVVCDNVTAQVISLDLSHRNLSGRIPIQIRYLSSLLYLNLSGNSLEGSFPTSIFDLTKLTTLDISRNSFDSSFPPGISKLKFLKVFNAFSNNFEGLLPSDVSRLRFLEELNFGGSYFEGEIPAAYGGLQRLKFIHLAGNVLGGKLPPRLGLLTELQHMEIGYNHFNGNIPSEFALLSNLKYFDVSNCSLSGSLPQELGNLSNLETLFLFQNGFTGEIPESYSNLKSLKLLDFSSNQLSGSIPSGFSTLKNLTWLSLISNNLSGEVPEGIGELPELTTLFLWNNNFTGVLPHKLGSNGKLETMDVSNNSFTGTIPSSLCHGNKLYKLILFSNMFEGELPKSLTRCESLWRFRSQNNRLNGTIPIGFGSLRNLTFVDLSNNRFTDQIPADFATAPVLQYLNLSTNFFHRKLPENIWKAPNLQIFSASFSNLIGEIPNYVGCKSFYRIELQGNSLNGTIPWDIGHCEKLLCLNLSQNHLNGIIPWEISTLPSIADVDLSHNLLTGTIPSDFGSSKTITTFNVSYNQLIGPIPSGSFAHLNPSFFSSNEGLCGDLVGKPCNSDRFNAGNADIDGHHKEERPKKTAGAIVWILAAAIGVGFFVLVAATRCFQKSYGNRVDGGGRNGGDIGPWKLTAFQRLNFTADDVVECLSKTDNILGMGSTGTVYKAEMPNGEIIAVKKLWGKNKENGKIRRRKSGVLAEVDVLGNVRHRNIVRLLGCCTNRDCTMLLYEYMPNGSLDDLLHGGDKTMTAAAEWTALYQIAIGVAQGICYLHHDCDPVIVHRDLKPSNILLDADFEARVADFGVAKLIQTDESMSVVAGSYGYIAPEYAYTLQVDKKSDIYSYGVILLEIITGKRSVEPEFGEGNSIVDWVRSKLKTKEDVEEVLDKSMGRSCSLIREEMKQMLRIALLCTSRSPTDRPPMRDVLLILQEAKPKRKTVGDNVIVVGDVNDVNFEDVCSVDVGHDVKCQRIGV

[3] = molecular target: T3, PXL2-flag (Arabidopsis thaliana) (UniProt Q9M0G7); assay: as above
T3 sequence: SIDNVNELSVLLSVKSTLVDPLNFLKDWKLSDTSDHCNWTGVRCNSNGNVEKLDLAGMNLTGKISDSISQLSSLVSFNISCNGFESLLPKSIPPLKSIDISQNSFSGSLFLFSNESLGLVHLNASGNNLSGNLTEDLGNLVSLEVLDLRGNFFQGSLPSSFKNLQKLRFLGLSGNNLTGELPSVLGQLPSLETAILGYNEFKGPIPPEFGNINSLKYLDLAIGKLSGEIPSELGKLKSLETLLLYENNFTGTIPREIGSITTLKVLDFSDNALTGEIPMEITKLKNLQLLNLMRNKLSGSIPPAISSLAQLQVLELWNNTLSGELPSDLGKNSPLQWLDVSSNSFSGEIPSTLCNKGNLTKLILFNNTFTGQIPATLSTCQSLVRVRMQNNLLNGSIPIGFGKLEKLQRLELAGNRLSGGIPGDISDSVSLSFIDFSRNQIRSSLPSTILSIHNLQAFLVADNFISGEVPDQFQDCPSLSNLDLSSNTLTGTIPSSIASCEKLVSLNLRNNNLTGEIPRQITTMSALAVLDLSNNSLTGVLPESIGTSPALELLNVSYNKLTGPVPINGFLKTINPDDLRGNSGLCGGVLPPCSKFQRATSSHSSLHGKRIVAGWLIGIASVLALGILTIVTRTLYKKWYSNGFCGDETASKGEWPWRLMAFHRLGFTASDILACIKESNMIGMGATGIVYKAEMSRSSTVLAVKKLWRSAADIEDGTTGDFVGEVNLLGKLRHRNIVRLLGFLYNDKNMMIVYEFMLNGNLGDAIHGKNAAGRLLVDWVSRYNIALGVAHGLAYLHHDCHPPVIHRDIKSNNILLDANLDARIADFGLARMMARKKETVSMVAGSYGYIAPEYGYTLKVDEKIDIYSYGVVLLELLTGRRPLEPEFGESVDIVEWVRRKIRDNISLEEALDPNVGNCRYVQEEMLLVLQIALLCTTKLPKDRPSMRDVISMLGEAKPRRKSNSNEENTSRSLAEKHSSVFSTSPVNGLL

[4] = molecular target: T2, PXY-FLAG (plant construct) (Arabidopsis thaliana); assay: co-IP; FLAG- and HA-tagged proteins coinfiltrated into Nicotiana leaves; 10 µM MG132 for 6 h; lysis in 50 mM Tris-HCl pH 7.6, 150 mM NaCl, 1% NP-40, 0.1% SDS; anti-HA or anti-FLAG (anti-DYKDDDDK) magnetic beads, 4 °C; western blot

binding [1]: binds | binding [2]: binds | binding [3]: binds | binding [4]: binds
B1: ER-HA (receptor, UniProt Q42371 25-976)
chain: EEGATLLEIKKSFKDVNNVLYDWTTSPSSDYCVWRGVSCENVTFNVVALNLSDLNLDGEISPAIGDLKSLLSIDLRGNRLSGQIPDEIGDCSSLQNLDLSFNELSGDIPFSISKLKQLEQLILKNNQLIGPIPSTLSQIPNLKILDLAQNKLSGEIPRLIYWNEVLQYLGLRGNNLVGNISPDLCQLTGLWYFDVRNNSLTGSIPETIGNCTAFQVLDLSYNQLTGEIPFDIGFLQVATLSLQGNQLSGKIPSVIGLMQALAVLDLSGNLLSGSIPPILGNLTFTEKLYLHSNKLTGSIPPELGNMSKLHYLELNDNHLTGHIPPELGKLTDLFDLNVANNDLEGPIPDHLSSCTNLNSLNVHGNKFSGTIPRAFQKLESMTYLNLSSNNIKGPIPVELSRIGNLDTLDLSNNKINGIIPSSLGDLEHLLKMNLSRNHITGVVPGDFGNLRSIMEIDLSNNDISGPIPEELNQLQNIILLRLENNNLTGNVGSLANCLSLTVLNVSHNNLVGDIPKNNNFSRFSPDSFIGNPGLCGSWLNSPCHDSRRTVRVSISRAAILGIAIGGLVILLMVLIAACRPHNPPPFLDGSLDKPVTYSTPKLVILHMNMALHVYEDIMRMTENLSEKYIIGHGASSTVYKCVLKNCKPVAIKRLYSHNPQSMKQFETELEMLSSIKHRNLVSLQAYSLSHLGSLLFYDYLENGSLWDLLHGPTKKKTLDWDTRLKIAYGAAQGLAYLHHDCSPRIIHRDVKSSNILLDKDLEARLTDFGIAKSLCVSKSHTSTYVMGTIGYIDPEYARTSRLTEKSDVYSYGIVLLELLTRRKAVDDESNLHHLIMSKTGNNEVMEMADPDITSTCKDLGVVKKVFQLALLCTKRQPNDRPTMHQVTRVLGSFMLSEQPPAATDTSATLAGSCYVDEYANLKTPHSVNCSSMSASDAQLFLRFGQVISQNSE

binding [1]: binds | binding [2]: binds | binding [3]: binds | binding [4]: binds
B2: ERL2-HA (receptor, UniProt Q6XAT2 28-967)
chain: MNNEGKALMAIKASFSNVANMLLDWDDVHNHDFCSWRGVFCDNVSLNVVSLNLSNLNLGGEISSALGDLMNLQSIDLQGNKLGGQIPDEIGNCVSLAYVDFSTNLLFGDIPFSISKLKQLEFLNLKNNQLTGPIPATLTQIPNLKTLDLARNQLTGEIPRLLYWNEVLQYLGLRGNMLTGTLSPDMCQLTGLWYFDVRGNNLTGTIPESIGNCTSFEILDVSYNQITGVIPYNIGFLQVATLSLQGNKLTGRIPEVIGLMQALAVLDLSDNELTGPIPPILGNLSFTGKLYLHGNKLTGQIPPELGNMSRLSYLQLNDNELVGKIPPELGKLEQLFELNLANNNLVGLIPSNISSCAALNQFNVHGNFLSGAVPLEFRNLGSLTYLNLSSNSFKGKIPAELGHIINLDTLDLSGNNFSGSIPLTLGDLEHLLILNLSRNHLNGTLPAEFGNLRSIQIIDVSFNFLAGVIPTELGQLQNINSLILNNNKIHGKIPDQLTNCFSLANLNISFNNLSGIIPPMKNFTRFSPASFFGNPFLCGNWVGSICGPSLPKSQVFTRVAVICMVLGFITLICMIFIAVYKSKQQKPVLKGSSKQPEGSTKLVILHMDMAIHTFDDIMRVTENLDEKYIIGYGASSTVYKCTSKTSRPIAIKRIYNQYPSNFREFETELETIGSIRHRNIVSLHGYALSPFGNLLFYDYMENGSLWDLLHGPGKKVKLDWETRLKIAVGAAQGLAYLHHDCTPRIIHRDIKSSNILLDGNFEARLSDFGIAKSIPATKTYASTYVLGTIGYIDPEYARTSRLNEKSDIYSFGIVLLELLTGKKAVDNEANLHQMILSKADDNTVMEAVDAEVSVTCMDSGHIKKTFQLALLCTKRNPLERPTMQEVSRVLLSLVPSPPPKKLPSPAKVQEGEERRESHSSDTTTPQWFVQFREDISKSSL
